Measured values as given in doi:10.1101/2021.11.24.469949.
Results are given in words; binding and its absence hold for the method and conditions named. In cells and extracts the contact can be indirect. A yes stands for co-enrichment or nearness to the bait. Other partners may have been found. For some of these results: Where a sequence is shown, tags or fusion partners need not be part of it.

Tests used:
Experiment in all cases: affinity purification with mass spectrometry
[1] = molecular target: T1, 3xFLAG tagged PHB (Arabidopsis) (UniProt O04291)
T1 sequence: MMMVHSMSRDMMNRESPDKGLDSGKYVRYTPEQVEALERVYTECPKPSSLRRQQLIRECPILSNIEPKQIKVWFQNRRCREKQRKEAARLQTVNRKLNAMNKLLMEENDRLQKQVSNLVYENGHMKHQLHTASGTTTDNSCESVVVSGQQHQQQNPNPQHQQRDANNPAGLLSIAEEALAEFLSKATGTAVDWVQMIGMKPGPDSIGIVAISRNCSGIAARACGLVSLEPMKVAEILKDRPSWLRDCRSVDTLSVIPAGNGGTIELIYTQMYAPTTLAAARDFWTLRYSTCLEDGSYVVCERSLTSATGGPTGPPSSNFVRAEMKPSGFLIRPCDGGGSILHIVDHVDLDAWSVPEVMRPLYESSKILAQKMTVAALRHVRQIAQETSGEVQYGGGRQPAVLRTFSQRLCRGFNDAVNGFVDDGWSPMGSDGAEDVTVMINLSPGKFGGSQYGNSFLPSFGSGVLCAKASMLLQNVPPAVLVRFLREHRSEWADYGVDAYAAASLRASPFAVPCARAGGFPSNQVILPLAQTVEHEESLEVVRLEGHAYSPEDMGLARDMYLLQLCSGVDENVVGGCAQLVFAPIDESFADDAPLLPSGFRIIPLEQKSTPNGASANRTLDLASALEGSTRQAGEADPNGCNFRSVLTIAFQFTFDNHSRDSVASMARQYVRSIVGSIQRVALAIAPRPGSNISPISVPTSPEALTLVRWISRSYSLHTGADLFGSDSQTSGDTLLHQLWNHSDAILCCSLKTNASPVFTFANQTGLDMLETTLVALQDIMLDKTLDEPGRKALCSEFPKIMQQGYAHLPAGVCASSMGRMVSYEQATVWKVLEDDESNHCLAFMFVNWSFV

[2] = molecular target: T2, ZPR4-tdTomato-3xFLAG (Arabidopsis) (UniProt Q56WL5)
T2 sequence: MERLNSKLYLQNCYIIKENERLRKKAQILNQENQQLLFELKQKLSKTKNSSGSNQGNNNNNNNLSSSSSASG

[3] = molecular target: T3, ZPR2-tdTomato-3xFLAG (Arabidopsis) (UniProt Q9LZX5)
T3 sequence: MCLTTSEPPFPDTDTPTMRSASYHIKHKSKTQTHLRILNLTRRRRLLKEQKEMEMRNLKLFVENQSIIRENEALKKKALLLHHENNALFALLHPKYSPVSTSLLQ

[4] = molecular target: T4, 3xFLAG tagged REV (Arabidopsis) (UniProt Q9SE43)
T4 sequence: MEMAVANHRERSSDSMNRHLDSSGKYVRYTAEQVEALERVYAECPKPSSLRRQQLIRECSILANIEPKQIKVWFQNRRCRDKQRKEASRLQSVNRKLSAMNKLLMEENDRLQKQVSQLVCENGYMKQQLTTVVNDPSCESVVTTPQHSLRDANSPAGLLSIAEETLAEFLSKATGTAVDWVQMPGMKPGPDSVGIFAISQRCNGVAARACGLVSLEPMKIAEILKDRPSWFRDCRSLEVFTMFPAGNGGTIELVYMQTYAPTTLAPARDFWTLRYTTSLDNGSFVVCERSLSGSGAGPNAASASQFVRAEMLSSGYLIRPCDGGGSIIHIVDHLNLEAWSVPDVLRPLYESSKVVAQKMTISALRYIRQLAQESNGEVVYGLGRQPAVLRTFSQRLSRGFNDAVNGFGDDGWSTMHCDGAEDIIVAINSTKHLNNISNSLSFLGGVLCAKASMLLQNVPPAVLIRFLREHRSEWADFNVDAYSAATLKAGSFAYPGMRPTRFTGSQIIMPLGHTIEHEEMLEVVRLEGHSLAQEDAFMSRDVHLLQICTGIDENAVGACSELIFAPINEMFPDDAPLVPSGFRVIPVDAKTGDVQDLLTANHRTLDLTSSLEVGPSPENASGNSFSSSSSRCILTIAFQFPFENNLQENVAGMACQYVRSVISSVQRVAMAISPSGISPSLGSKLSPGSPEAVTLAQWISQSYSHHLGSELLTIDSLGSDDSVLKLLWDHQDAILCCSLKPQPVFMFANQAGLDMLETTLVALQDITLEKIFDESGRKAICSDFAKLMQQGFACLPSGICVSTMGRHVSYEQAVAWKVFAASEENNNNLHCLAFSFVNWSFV

[5] = molecular target: ZPR1-tdTomato-3xFLAG (Arabidopsis)

Measured: binding

B1: ATHB8 (protein, UniProt Q39123 1-833)
chain: MGGGSNNSHNMDNGKYVRYTPEQVEALERLYNDCPKPSSMRRQQLIRECPILSNIEPKQIKVWFQNRRCREKQRKEASRLQAVNRKLTAMNKLLMEENDRLQKQVSHLVYENSYFRQHPQNQGNLATTDTSCESVVTSGQHHLTPQHQPRDASPAGLLSIADETLTEFISKATGTAVEWVQMPGMKPGPDSIGIVAISHGCTGIAARACGLVGLDPTRVAEILKDKPCWLRDCRSLDIVNVLSTANGGTLELIYMQLYAPTTLAPARDFWMLRYTSVMEDGSLVICERSLNNTQNGPSMPPSPHFVRAEILPSGYLIRPCEGGGSILHIVDHFDLEPWSVPEVLRSLYESSTLLAQRTTMAALRYLRQISQEISQPNVTGWGRRPAALRALSQRLSKGFNEAVNGFSDEGWSILESDGIDDVTLLVNSSPTKMMMTSSLPFANGYTSMPSAVLCAKASMLLQNVPPSILLRFLREHRQEWADNSIDAYSAAAIKAGPCSLPIPRPGSFGGQVILPLAHTIENEEFMEVIKLESLGHYQEDMMMPADIFLLQMCSGVDENAVESCAELIFAPIDASFSDDAPIIPSGFRIIPLDSKSEGLSPNRTLDLASALDVGSRTAGDSCGSRGNSKSVMTIAFQLAFEMHMQENVASMARQYVRSVIASVQRVALALSPSSHQLSGLRPPPASPEAHTLARWISHSYRCYLGVDLLKPHGTDLLKSLWHHPDAVMCCSLKALSPVFTFANQAGLDMLETTLVALQDITLDKIFDNNNGKKTLSSEFPQIMQQGFMCMDGGICMSSMGRAVTYEKAVGWKVLNDDEDPHCICFMFLNWSFI
binds: [1] | [2] | [3] | [4] | [5]

B2: PHAVOLUTA/ATHB9 (PHV) (protein, UniProt O04292 1-841)
chain: MMAHHSMDDRDSPDKGFDSGKYVRYTPEQVEALERVYAECPKPSSLRRQQLIRECPILCNIEPRQIKVWFQNRRCREKQRKESARLQTVNRKLSAMNKLLMEENDRLQKQVSNLVYENGFMKHRIHTASGTTTDNSCESVVVSGQQRQQQNPTHQHPQRDVNNPANLLSIAEETLAEFLCKATGTAVDWVQMIGMKPGPDSIGIVAVSRNCSGIAARACGLVSLEPMKVAEILKDRPSWFRDCRCVETLNVIPTGNGGTIELVNTQIYAPTTLAAARDFWTLRYSTSLEDGSYVVCERSLTSATGGPNGPLSSSFVRAKMLSSGFLIRPCDGGGSIIHIVDHVDLDVSSVPEVLRPLYESSKILAQKMTVAALRHVRQIAQETSGEVQYSGGRQPAVLRTFSQRLCRGFNDAVNGFVDDGWSPMSSDGGEDITIMINSSSAKFAGSQYGSSFLPSFGSGVLCAKASMLLQNVPPLVLIRFLREHRAEWADYGVDAYSAASLRATPYAVPCVRTGGFPSNQVILPLAQTLEHEEFLEVVRLGGHAYSPEDMGLSRDMYLLQLCSGVDENVVGGCAQLVFAPIDESFADDAPLLPSGFRVIPLDQKTNPNDHQSASRTRDLASSLDGSTKTDSETNSRLVLTIAFQFTFDNHSRDNVATMARQYVRNVVGSIQRVALAITPRPGSMQLPTSPEALTLVRWITRSYSIHTGADLFGADSQSCGGDTLLKQLWDHSDAILCCSLKTNASPVFTFANQAGLDMLETTLVALQDIMLDKTLDDSGRRALCSEFAKIMQQGYANLPAGICVSSMGRPVSYEQATVWKVVDDNESNHCLAFTLVSWSFV
binds: [1] | [2] | [3] | [4] | [5]
